The experiment can be described thus: qHTS Assay to Find Inhibitors of Chronic Active B-Cell Receptor Signaling. Particulars: ABC-DLBCL IkBa-CBG/CBR reporter, luminescence ratio (green luciferase fused to IkBa over red control in TMD8 lymphoma cells), 4 h. In short, it runs like this: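 Concentration-response series (up to 46 uM) were applied to TMD8 dual-reporter cells for 4 h at 37C with doxycycline. Green/red ratio, after filter-overlap correction, defined %Activity; red signal alone was normalised to basal cells and zero luminescence.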

Where [1] appears, read: measured here: CBR red luminescence, cell number.
[2] abbreviates: measured here: IkBa-CBG green luminescence.

The list shows a part of the results. Further columns of the screen follow, without active or inactive calls. Compounds called inactive in the main read-out are mostly missing here. Words in brackets tell the shape of the fitted curve; partial curves, single points and poor fits give uncertain potencies.

Broadly, the AC50 is the midpoint of the concentration-response curve, whichever way the signal moves.

In the case of `CC(C)(C)[C@@H]1COC(=O)[C@H](Cc2ccc(F)cc2)CC/C=C\C[C@@H](CC(=O)N(CCO)Cc2ccccc2)C(=O)N1`, under setting [1], the AC50 was 32.6 µM [falling, partial curve, poor fit].

`O=C(Oc1ccc2c(c1)O/C(=C\c1ccncc1)C2=O)c1cccs1`: the AC50 under setting [1] is 5.01 µM [falling, single point].

Take `CCN1CCN(Cc2c(O)ccc3c(=O)c(-c4ccc(OC)c(OC)c4)c(C)oc23)CC1`: the AC50 under setting [1] was 3.98 µM [rising, single point].

Turning to `CC(=O)N1CCC(C(=O)Nc2ccccc2)(N(Cc2ccccc2)C(=O)c2cccnc2)CC1`, the AC50 under setting [1] is 17.8 µM [falling, partial curve].

As for `COC(=O)C1=CNC=C(C(=O)OC)C1c1cccc2ccccc12`, the AC50 under setting [1] is 35.5 µM [falling, single point].

Take `CCc1ccc(S(=O)(=O)/N=C2/C=C(Sc3ncn[nH]3)C(=O)c3ccccc32)cc1`: the AC50 by setting is: under setting [1], 2.31 µM [falling, full curve, poor fit]; under setting [2], 25.9 µM [falling, single point].

For the compound `CCCNc1nc2c(c(=O)n(C)c(=O)n2C)n1CCC(C)C`, the AC50 under setting [1] was 3.98 µM [falling, partial curve, poor fit].

Turning to `CCCCCCC(=O)Nc1nc(C)c(-c2csc(Nc3ccccc3OC)n2)s1`, the AC50 under setting [1] is 3.55 µM [falling, partial curve].

In the case of `CN1C(=O)[C@H]2[C@@H](C3CC3)N3C(=O)CN(Cc4ccc(-c5ccccc5)cc4)C(=O)[C@@]3(C)[C@H]2C1=O`, under setting [1], the AC50 was 4.47 µM [falling, partial curve, poor fit].

As for `O=C(CNc1ccc(Br)cc1)c1ccc(Br)s1`, under setting [1], the AC50 was 0.708 µM [falling, full curve, poor fit].

On to `Cc1ccc2oc(=O)c3cnn(CC(=O)NCCc4ccsc4)c3c2c1`, for which, under setting [1], the AC50 was 18.4 µM [falling, single point].

Take `CC(=O)c1c(C)nc(-c2ccc3c(c2)OCO3)n1O`: the AC50 under setting [1] was 12.6 µM [falling, partial curve].

`Cc1cc(C(C)(C)C)oc1C(=O)Nc1ccc(CC(=O)O)cc1`: the AC50 under setting [1] was 17.8 µM [rising, single point].

Consider `O=C(NCc1nc2ccccc2[nH]1)C1=C[C@H](C2CC2)C[C@H](OCc2ccc(CO)cc2)O1`, for which the AC50 under setting [1] is 15.8 µM [falling, partial curve].

For `Nc1ccc(C(=O)n2c3ccccc3c3ccccc32)cc1`, the AC50 by setting is: under setting [1], 16.4 µM [rising, partial curve]; under setting [2], 8.2 µM [falling, partial curve].

With `Cc1ccc(SCC(=O)Nc2nccs2)cc1`, the AC50 under setting [1] is 10 µM [falling, partial curve, poor fit].

Consider `CCC(C)n1c(-c2cc(OC)c(OC)c(OC)c2)nc2nc3ccccc3nc21` (configuration not stated), for which the AC50 under setting [1] was 18.4 µM [falling, single point].

For `CCOC(=O)C1CCN(C(=O)c2cc3ccc(OC)cc3[nH]2)CC1`, the AC50 under setting [1] is 3.98 µM [falling, partial curve, poor fit].

With `COc1ccc(NC(=O)c2ccco2)cc1NC(=O)c1ccc(Br)o1`, under setting [1], the half-maximal activity concentration (AC50) was 2.06 µM [rising, partial curve, poor fit].

As for `Cc1ccc(NC(=O)CS(=O)(=O)c2cn(CC(=O)N3CCOCC3)c3ccccc23)cc1`, under setting [1], the AC50 is 2 µM [falling, full curve].

For the compound `CCOC(=O)C1CCN(C(=O)c2ccc(Oc3cc(Cl)cc(Cl)c3)o2)CC1`, the concentration at half-maximal activity (AC50) under setting [1] was 7.94 µM [falling, partial curve, poor fit].

In the case of `Cc1nc(SCC(=O)NCCc2ccccc2)nc(C)c1C`, the AC50 under setting [1] was 0.651 µM [rising, partial curve, poor fit].

In the case of `CCCc1cc(=O)[nH]c(SCC(=O)c2cc(C)n(C3CC3)c2C)n1`, the AC50 under setting [1] is 35.5 µM [falling, partial curve, poor fit].

Turning to `Cc1ccc(-c2csc(/C(C#N)=C(\O)CCl)n2)cc1`, under setting [1], the AC50 is 11.2 µM [rising, single point].

On to `CCN(CC)CCSc1nnc2c3cc(C)ccc3n(Cc3ccccc3)c2n1`, for which the AC50 under setting [1] is 6.31 µM [falling, full curve, poor fit].

As to `Cc1cccc2c(=O)cc(C)n(Cc3ccccc3)c12`, the concentration at half-maximal activity (AC50) under setting [1] is 10.3 µM [rising, partial curve].

On to `Cc1nc2c(C)cccc2cc1C(=O)N/N=C/c1ccc(N(C)C)cc1`, for which the AC50 runs as follows: under setting [1], 11.6 µM [rising, partial curve]; under setting [2], 25.9 µM [falling, partial curve, poor fit].

Turning to `Cc1ccc(NC(=O)CSc2nc3nc(C)cc(C)c3c(=O)[nH]2)cc1`, the AC50 under setting [1] was 20.6 µM [falling, partial curve].

For `C(=C\c1nccc2c1[nH]c1ccccc12)/c1ccccc1`, the half-maximal activity concentration (AC50) under setting [1] was 5.62 µM [falling, partial curve, poor fit].

As to `Cc1cccc(NC(=O)c2n[nH]c([N+](=O)[O-])c2Br)c1C`, under setting [1], the AC50 is 20 µM [falling, single point].

With `Cc1cccc(-c2cccc(NC(=O)C3CCCN(C(=O)c4ocnc4C)C3)c2)c1` (configuration not stated), the AC50 under setting [1] was 35.5 µM [falling, single point].

On to `NS(=O)(=O)c1ccc(NC(=O)CSc2nc3ccccc3nc2N2CCOCC2)cc1`, for which the AC50 under setting [1] is 0.447 µM [falling, full curve, poor fit].

Consider `Cc1ccnc(NC(=O)CNC(=O)c2ccc3ccccc3c2)c1`, for which the AC50 under setting [1] was 2.91 µM [rising, full curve].

`COc1ccc(OC)c(/C=N/NC(=O)c2ccc(N(C)S(=O)(=O)c3ccccc3)cc2)c1`: the AC50 under setting [1] was 35.5 µM [falling, partial curve, poor fit].

`Cc1nc(CC(=O)O)c(-c2ccccc2)s1`: under setting [1], the AC50 is 8.2 µM [falling, partial curve, poor fit].

With `CCC(C)N(C(=O)COC(=O)c1nc(Cl)ccc1Cl)C1CCS(=O)(=O)C1` (configuration not stated), the AC50 under setting [1] was 5.8 µM [falling, partial curve, poor fit].

As for `C=C(C)c1cccc(C(C)(C)NC(=O)N2CCCCC2CC)c1` (configuration not stated), under setting [1], the AC50 is 0.92 µM [falling, full curve, poor fit].

Take `O=C(Oc1ccccc1-c1nnco1)c1ccc(Cl)cc1`: the AC50 under setting [1] is 31.6 µM [falling, single point].

Regarding `CS(=O)(=O)N1CCN(c2ccccc2NC(=O)c2ccc(-c3ccc(Br)cc3)o2)CC1`, the AC50 under setting [1] is 8.2 µM [falling, single point].
